# Experimental data taken from the supplement of paper PMC8728848.
# The other results are listed elsewhere or left out.
# B1: CcfD (Bacteroides fragilis), Q5L9G4 (protein)
# chain: MKKQNSIYTLLIALLCFVSSCDYLGVSDQLAGGLQNTEQVFDNVSYTKRWYANVFAGIPDYSGINSVNVGAFKNPWTGMCDELVVGYGNSSKYNNSDRNAANMGFHRYGDCYKYIRQANIFLQKAHPIMTTGTQGDQLLEDELTQMKANVRFMRAFYHYLLFEQYGPIILVKDKIYNATEDQDVPRNTVDEVIEYIDSELTAVASELTQEPIFEDKDYRAWPTKGVALAVRAKLWLYAASPLLNGGYREALSVTNPDGTRLFPDYDAGKWEKALAACKDFIDYAEAGRYELYKEYKDDNGAVIDPDKSVYNLFQKYTHEIIWATANNDWGGMNGDAFDRRIAPRCEKNGLGSTGVTQELVDAFYMKDGFPVSATAYLPQSTLYQEEGYGTYKDQNDNFSKKYTNVTVSNRYLNREPRFYNTVFFNGRQWPVSCNQVLFYNGGNSGVQEGQATLTGYMLFKRFNRSVSLTNPGVASQFRPSIIFRLADFYLMYAEAANEVNPNDARVLKYLNLVRERAGLPDIETLNPAIRGNQELQRAAIQRERQIELATEGQRYFDVRRWMIADKNGEGRQNGYVHGMNVRGESNDKEDFNRIVEASQIVFNRKMYLYPMPDSEMRKTKNLVQNPGW
# Tests used:
# Experiment in all cases: glycan array binding signal (z-score within array); higher = stronger binding
# Conditions in all cases: glycan notation: IUPAC condensed, linker removed
# [1] = target: Gal(b1-3)GlcNAc(b1-2)Man(a1-3)[Gal(b1-3)GlcNAc(b1-2)Man(a1-6)]Man(b1-4)GlcNAc(b1-4)GlcNAc
# In short: (§1)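 The Consortium for Functional Glycomics database supplied 3228 glycan arrays, of which those lacking an available protein sequence were dropped. The binding signal, a within-array Z-score, was averaged across arrays of the same protein sequence and across linkers. Negative scores can be read as non-binding.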
# [2] = target: Gal(b1-3)GlcNAc(b1-2)Man(a1-3)[Gal(b1-3)GlcNAc(b1-2)Man(a1-6)]Man(b1-4)GlcNAc(b1-4)[Fuc(a1-6)]GlcNAc
# In short: as §1
# [3] = target: Gal(b1-3)GlcNAc(b1-2)Man(a1-3)[GlcNAc(b1-4)][Gal(b1-3)GlcNAc(b1-2)Man(a1-6)]Man(b1-4)GlcNAc(b1-4)GlcNAc
# In short: as §1
# [4] = target: Gal(b1-3)GlcNAc(b1-2)[Gal(b1-3)GlcNAc(b1-6)]Man(a1-6)[Gal(b1-3)GlcNAc(b1-2)Man(a1-3)]Man(b1-4)GlcNAc(b1-4)GlcNAc
# In short: as §1
# [5] = target: Gal(b1-3)GlcNAc(b1-3)Gal(b1-3)GlcNAc
# In short: as §1
# [6] = target: Gal(b1-3)GlcNAc(b1-3)Gal(b1-4)Glc
# In short: as §1
# [7] = target: Gal(b1-3)GlcNAc(b1-3)Gal(b1-4)GlcNAc
# In short: as §1
# [8] = target: Gal(b1-3)GlcNAc(b1-3)Gal(b1-4)GlcNAc(b1-2)Man(a1-3)[Gal(b1-3)GlcNAc(b1-3)Gal(b1-4)GlcNAc(b1-2)Man(a1-6)]Man(b1-4)GlcNAc(b1-4)GlcNAc
# In short: as §1
# [9] = target: Gal(b1-3)GlcNAc(b1-3)Gal(b1-4)GlcNAc(b1-2)[Gal(b1-3)GlcNAc(b1-3)Gal(b1-4)GlcNAc(b1-6)]Man(a1-6)[Gal(b1-3)GlcNAc(b1-3)Gal(b1-4)GlcNAc(b1-2)Man(a1-3)]Man(b1-4)GlcNAc(b1-4)[Fuc(a1-6)]GlcNAc
# In short: as §1
# [10] = target: Gal(b1-3)GlcNAc(b1-3)Gal(b1-4)GlcNAc(b1-3)Gal(b1-4)GlcNAc(b1-2)[Gal(b1-3)GlcNAc(b1-3)Gal(b1-4)GlcNAc(b1-3)Gal(b1-4)GlcNAc(b1-6)]Man(a1-6)[Gal(b1-3)GlcNAc(b1-3)Gal(b1-4)GlcNAc(b1-3)Gal(b1-4)GlcNAc(b1-2)Man(a1-3)]Man(b1-4)GlcNAc(b1-4)[Fuc(a1-6)]GlcNAc
# In short: as §1
# [11] = target: Gal(b1-3)GlcNAc(b1-3)Gal(b1-4)GlcNAc(b1-6)[Gal(b1-3)GlcNAc(b1-3)]Gal(b1-4)Glc
# In short: as §1
# [12] = target: Gal(b1-3)GlcNAc(b1-3)Gal(b1-4)[Fuc(a1-3)]GlcNAc
# In short: as §1
# [13] = target: Gal(b1-3)GlcNAc(b1-3)Gal(b1-4)[Fuc(a1-3)]GlcNAc(b1-6)[Gal(b1-3)GlcNAc(b1-3)]Gal(b1-4)Glc
# In short: as §1
# [14] = target: Gal(b1-3)GlcNAc(b1-3)GalNAc
# In short: as §1
# [15] = target: Gal(b1-3)GlcNAc(b1-6)Gal(b1-4)GlcNAc
# In short: as §1
# [16] = target: Gal(b1-3)GlcNAc(b1-6)GalNAc
# In short: as §1
# [17] = target: Gal(b1-3)GlcNAc(b1-6)[Gal(b1-3)]GalNAc
# In short: as §1
# Gal(b1-3)GlcNAc6S = target: Gal(b1-3)GlcNAc6S
# In short: as §1
# [18] = target: Gal(b1-3)[Fuc(a1-4)]GlcNAc
# In short: as §1
# [19] = target: Gal(b1-3)[Fuc(a1-4)]GlcNAc(b1-2)Man
# In short: as §1
# [20] = target: Gal(b1-3)[Fuc(a1-4)]GlcNAc(b1-2)Man(a1-3)[Gal(b1-3)[Fuc(a1-4)]GlcNAc(b1-2)Man(a1-6)]Man(b1-4)GlcNAc(b1-4)[Fuc(a1-6)]GlcNAc
# In short: as §1
# [21] = target: Gal(b1-3)[Fuc(a1-4)]GlcNAc(b1-3)Gal(b1-3)[Fuc(a1-4)]GlcNAc
# In short: as §1
# [22] = target: Gal(b1-3)[Fuc(a1-4)]GlcNAc(b1-3)Gal(b1-4)[Fuc(a1-3)]GlcNAc
# In short: as §1
# [23] = target: Gal(b1-3)[Fuc(a1-4)]GlcNAc(b1-6)GalNAc
# In short: as §1
# [24] = target: Gal(b1-3)[GlcNAc(b1-6)]GalNAc
# In short: as §1
# [25] = target: Gal(b1-3)[Neu5Ac(a2-6)]GalNAc
# In short: as §1
# [26] = target: Gal(b1-3)[Neu5Ac(a2-6)]GlcNAc(b1-4)Gal(b1-4)Glc
# In short: as §1
# [27] = target: Gal(b1-3)[Neu5Ac(b2-6)]GalNAc
# In short: as §1
# Gal(b1-4)Gal = target: Gal(b1-4)Gal
# In short: as §1
# [28] = target: Gal(b1-4)GalNAc(a1-3)[Fuc(a1-2)]Gal(b1-4)GlcNAc
# In short: as §1
binder,measurement,setting,value
B1,glycan array binding signal (z-score),[1],-0.686
same,glycan array binding signal (z-score),[2],-0.365
same,glycan array binding signal (z-score),[3],0.082
same,glycan array binding signal (z-score),[4],-0.292
same,glycan array binding signal (z-score),[5],1.94
same,glycan array binding signal (z-score),[6],-0.713
same,glycan array binding signal (z-score),[7],-1.11
same,glycan array binding signal (z-score),[8],-0.036
same,glycan array binding signal (z-score),[9],-0.516
same,glycan array binding signal (z-score),[10],0.351
same,glycan array binding signal (z-score),[11],-0.056
same,glycan array binding signal (z-score),[12],-0.785
same,glycan array binding signal (z-score),[13],-0.719
same,glycan array binding signal (z-score),[14],-0.942
same,glycan array binding signal (z-score),[15],0.03
same,glycan array binding signal (z-score),[16],2.12
same,glycan array binding signal (z-score),[17],0.115
same,glycan array binding signal (z-score),Gal(b1-3)GlcNAc6S,-1.02
same,glycan array binding signal (z-score),[18],0.008
same,glycan array binding signal (z-score),[19],-1.36
same,glycan array binding signal (z-score),[20],-0.535
same,glycan array binding signal (z-score),[21],-0.765
same,glycan array binding signal (z-score),[22],2.86
same,glycan array binding signal (z-score),[23],-0.036
same,glycan array binding signal (z-score),[24],-0.41
same,glycan array binding signal (z-score),[25],0.561
same,glycan array binding signal (z-score),[26],0.607
same,glycan array binding signal (z-score),[27],-0.982
same,glycan array binding signal (z-score),Gal(b1-4)Gal,-0.076
same,glycan array binding signal (z-score),[28],-0.069
